Measurements reported in the supplement of paper PMC12819154, “High-throughput peptide-centric local stability assay extends protein–ligand identification to membrane proteins, tissues and bacteria” (Nature Structural & Molecular Biology, 2025).
The list shows a part of the results. Most values lie at the level of the controls, where differences are scatter.

Chains of the proteins cited; added tags and fusions are not shown. Lines headed by an entry give the natural chain unless they say otherwise; changes in a name come on top.
UniProt Q9CQK7: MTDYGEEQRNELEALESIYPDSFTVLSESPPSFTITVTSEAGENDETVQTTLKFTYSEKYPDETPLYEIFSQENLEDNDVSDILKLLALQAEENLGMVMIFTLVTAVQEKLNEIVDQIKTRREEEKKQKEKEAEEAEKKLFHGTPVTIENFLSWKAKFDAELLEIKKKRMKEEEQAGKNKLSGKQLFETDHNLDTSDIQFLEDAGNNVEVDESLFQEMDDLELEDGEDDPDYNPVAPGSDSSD
UniProt Q9CQL7: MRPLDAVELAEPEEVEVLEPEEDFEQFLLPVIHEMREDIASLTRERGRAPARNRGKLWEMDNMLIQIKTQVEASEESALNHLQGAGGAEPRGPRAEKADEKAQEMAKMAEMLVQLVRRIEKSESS
UniProt Q99MR8: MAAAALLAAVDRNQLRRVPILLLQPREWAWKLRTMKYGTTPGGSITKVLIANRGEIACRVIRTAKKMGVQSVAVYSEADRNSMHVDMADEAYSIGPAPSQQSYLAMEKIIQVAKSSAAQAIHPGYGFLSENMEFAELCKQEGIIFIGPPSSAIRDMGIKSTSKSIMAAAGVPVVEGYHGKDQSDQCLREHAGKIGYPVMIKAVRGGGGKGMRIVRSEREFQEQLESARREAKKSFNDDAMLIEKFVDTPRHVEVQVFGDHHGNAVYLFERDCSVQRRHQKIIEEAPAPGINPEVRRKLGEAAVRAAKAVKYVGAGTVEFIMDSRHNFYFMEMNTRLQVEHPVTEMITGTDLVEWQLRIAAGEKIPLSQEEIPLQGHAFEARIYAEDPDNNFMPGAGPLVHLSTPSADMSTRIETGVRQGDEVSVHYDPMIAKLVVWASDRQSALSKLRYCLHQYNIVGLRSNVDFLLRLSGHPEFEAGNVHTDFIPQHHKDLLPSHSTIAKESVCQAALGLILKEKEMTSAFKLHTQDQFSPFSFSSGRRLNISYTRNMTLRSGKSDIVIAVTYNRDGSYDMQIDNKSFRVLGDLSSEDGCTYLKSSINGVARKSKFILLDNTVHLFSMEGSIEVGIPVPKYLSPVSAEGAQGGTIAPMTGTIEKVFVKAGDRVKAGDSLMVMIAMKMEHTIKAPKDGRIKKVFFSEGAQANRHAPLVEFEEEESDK
UniProt Q9CPY7: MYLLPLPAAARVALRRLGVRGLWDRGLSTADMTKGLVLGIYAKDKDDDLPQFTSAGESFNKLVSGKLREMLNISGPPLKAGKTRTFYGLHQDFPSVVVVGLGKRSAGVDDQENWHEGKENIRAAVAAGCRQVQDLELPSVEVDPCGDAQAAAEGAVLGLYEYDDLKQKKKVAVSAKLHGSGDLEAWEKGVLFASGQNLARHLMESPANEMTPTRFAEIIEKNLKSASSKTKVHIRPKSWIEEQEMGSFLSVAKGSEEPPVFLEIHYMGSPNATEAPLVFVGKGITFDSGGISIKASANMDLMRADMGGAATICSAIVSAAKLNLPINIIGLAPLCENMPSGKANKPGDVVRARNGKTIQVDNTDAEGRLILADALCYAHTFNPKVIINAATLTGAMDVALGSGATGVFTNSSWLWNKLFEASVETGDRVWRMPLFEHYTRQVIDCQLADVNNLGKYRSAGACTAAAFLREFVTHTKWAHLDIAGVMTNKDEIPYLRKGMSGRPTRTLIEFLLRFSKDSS
UniProt Q9CR00: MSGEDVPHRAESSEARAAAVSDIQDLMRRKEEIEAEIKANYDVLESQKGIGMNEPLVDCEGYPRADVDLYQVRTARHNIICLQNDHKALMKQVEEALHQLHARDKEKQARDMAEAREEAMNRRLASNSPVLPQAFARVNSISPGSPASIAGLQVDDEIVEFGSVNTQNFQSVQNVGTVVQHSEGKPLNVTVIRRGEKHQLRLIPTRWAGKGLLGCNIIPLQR
UniProt Q9CPU0: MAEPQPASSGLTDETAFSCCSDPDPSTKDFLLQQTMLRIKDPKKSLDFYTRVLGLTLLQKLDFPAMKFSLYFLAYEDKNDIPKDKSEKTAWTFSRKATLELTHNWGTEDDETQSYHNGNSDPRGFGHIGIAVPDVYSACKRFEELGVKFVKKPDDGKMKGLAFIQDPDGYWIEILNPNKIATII
UniProt Q9CQ45: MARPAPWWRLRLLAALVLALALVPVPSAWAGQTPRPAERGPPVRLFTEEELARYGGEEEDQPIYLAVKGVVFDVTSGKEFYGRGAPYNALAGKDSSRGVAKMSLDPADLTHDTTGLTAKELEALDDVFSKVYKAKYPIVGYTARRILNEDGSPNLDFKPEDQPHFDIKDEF
UniProt Q9CQZ7: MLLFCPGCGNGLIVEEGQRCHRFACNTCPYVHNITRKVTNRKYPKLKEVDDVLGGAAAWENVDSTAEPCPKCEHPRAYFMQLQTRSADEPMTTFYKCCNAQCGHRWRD
UniProt Q9CQR4: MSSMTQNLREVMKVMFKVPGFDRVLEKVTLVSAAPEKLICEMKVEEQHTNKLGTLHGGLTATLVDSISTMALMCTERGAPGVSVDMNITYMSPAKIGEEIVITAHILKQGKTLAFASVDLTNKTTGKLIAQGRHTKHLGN
UniProt Q9CPX6, whole entry: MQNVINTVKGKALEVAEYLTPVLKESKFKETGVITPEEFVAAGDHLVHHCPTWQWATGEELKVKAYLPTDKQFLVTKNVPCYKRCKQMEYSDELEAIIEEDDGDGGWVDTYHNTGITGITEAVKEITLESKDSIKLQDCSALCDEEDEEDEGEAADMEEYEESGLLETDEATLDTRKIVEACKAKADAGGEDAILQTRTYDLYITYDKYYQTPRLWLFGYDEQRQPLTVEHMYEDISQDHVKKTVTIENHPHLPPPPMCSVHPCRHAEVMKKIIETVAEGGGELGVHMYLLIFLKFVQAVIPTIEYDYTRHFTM
UniProt Q99M04: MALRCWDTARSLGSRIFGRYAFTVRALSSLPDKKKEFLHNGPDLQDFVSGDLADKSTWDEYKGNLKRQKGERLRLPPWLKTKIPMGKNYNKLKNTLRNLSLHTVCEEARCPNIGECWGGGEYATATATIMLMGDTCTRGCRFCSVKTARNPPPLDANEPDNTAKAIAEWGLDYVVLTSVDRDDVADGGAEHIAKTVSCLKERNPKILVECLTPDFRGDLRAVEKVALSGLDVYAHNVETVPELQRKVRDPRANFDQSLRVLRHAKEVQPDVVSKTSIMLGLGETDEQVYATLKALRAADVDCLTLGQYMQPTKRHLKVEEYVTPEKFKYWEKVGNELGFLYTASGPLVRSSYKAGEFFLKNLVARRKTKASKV
UniProt Q99NH2, whole entry: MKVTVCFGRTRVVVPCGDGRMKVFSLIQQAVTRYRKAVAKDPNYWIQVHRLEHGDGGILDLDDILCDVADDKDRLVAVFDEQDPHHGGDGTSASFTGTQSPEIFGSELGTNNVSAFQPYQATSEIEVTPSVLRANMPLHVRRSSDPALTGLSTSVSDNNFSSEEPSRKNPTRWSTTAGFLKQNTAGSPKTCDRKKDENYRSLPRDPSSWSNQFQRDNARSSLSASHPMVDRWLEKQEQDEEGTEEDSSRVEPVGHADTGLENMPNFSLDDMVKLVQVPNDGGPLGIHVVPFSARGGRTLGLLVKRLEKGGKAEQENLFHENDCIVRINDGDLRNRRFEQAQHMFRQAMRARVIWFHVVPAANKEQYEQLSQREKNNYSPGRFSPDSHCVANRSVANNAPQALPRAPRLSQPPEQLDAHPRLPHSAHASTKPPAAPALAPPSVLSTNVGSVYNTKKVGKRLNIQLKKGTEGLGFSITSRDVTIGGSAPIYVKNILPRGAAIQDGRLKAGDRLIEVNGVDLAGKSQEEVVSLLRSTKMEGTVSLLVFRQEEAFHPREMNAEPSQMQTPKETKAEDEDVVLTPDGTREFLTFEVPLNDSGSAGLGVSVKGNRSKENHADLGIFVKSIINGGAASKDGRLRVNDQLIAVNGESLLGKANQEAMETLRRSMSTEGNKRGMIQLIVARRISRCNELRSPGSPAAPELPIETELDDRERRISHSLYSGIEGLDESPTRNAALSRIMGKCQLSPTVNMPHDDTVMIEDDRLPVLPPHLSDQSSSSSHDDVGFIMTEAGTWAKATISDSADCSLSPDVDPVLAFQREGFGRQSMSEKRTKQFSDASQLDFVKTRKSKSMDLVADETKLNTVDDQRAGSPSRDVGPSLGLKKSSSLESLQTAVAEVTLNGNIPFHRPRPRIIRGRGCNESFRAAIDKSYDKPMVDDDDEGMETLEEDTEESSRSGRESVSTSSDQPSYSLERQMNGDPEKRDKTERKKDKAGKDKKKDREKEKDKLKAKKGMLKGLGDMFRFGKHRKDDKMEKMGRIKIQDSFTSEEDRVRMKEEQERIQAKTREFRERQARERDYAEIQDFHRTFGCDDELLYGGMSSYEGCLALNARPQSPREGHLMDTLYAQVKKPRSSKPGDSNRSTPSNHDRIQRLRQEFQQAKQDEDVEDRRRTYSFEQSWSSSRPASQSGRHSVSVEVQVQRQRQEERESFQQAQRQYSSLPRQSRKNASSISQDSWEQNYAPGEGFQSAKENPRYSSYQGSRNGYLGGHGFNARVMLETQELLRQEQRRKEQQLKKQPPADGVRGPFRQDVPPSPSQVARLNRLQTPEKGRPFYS
UniProt Q9CR02: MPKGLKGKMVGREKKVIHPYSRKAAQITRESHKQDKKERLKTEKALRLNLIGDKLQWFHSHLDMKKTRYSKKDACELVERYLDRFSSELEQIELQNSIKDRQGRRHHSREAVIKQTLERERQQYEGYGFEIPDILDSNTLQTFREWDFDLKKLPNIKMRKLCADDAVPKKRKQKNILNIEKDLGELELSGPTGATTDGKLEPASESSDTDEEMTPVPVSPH
UniProt Q99LU0: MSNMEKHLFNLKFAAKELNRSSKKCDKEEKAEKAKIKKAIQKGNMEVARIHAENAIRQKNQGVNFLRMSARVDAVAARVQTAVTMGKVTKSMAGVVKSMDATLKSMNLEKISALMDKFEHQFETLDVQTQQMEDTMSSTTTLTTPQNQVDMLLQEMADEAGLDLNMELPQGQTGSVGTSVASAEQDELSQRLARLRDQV
UniProt Q99LW6: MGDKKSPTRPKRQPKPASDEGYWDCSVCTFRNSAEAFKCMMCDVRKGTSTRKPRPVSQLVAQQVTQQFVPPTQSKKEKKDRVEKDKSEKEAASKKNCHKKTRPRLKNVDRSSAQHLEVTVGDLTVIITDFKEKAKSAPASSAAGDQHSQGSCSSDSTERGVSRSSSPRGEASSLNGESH
UniProt Q9CPW2: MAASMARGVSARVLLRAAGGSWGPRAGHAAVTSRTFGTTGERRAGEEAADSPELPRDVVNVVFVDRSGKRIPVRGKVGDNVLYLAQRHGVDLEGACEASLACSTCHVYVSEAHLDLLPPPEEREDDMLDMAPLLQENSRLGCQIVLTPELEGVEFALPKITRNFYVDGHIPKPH
UniProt Q99M15: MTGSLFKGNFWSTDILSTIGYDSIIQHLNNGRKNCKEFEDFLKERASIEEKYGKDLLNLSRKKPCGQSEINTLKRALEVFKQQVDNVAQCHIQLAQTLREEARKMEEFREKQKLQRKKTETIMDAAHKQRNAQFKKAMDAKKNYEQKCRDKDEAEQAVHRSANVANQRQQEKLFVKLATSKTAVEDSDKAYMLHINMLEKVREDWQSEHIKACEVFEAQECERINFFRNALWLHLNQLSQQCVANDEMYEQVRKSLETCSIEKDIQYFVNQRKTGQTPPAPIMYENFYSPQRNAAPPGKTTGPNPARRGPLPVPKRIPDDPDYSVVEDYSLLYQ
UniProt Q9CQZ1: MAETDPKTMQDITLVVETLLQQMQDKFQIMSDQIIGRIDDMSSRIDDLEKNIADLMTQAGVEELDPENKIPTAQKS
UniProt Q99LJ8: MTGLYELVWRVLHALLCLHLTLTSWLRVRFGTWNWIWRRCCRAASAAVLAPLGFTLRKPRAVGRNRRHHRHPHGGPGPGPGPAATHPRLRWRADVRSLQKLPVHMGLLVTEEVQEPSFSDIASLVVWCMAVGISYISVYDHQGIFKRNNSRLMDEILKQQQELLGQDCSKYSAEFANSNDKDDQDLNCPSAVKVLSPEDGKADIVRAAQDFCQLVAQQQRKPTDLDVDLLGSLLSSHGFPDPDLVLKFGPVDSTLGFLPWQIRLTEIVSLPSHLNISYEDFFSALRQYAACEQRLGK
UniProt Q99PM9: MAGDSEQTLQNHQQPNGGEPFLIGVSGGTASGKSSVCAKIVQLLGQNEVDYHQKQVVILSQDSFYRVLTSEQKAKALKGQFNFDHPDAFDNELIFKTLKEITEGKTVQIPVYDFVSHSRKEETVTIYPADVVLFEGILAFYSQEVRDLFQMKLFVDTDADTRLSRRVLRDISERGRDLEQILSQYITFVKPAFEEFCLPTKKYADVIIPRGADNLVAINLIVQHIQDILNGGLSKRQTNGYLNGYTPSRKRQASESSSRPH
UniProt Q9CQ06, whole entry: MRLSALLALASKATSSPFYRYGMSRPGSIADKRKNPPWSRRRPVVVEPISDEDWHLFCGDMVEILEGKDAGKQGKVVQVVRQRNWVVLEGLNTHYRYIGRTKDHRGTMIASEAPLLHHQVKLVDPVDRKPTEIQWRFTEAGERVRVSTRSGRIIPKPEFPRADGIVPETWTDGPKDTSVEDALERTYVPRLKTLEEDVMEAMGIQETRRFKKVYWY
UniProt Q9CQZ6: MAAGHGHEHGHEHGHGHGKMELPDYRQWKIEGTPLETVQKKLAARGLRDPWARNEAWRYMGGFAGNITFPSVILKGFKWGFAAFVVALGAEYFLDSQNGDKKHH

These targets were tested with CN[C@@H]1C[C@H]2O[C@@](C)([C@@H]1OC)n1c3ccccc3c3c4c(c5c6ccccc6n2c5c31)C(=O)NC4 [staurosporine] (assay: log2 fold change of tryptic peptide abundance, ligand vs vehicle (limited proteolysis) (log2 ratio); higher = more trypsin-susceptible (destabilized)). Details: ligand concentration: 20 uM; sample: mouse liver crude lysate; replicate design: treated separately.

Question: How did the log2 fold change turn out when “UniProt Q9CQK7 (peptide sequence: MKEEEQAGKNK, peptide start residue: 170)” was run?
Answer: -0.215

Question: “UniProt Q9CQW1 (peptide sequence: VAFTLLEK, peptide start residue: 89)” was tested. Which log2 fold change did it give?
Answer: -0.276

Question: How did the log2 fold change turn out when “UniProt Q9CQL7 (peptide sequence: EDIASLTR, peptide start residue: 37)” was run?
Answer: 0.0422

Question: “UniProt Q9CR21 (peptide sequence: LYDKIDPEKLSVNSHFMK, peptide start residue: 89)” was tested. Which log2 fold change did it give?
Answer: 0.171

Question: “UniProt Q99MR8 (peptide sequence: RLNISYTR, peptide start residue: 540)” was tested. Which log2 fold change did it give?
Answer: 0.44

Question: With “UniProt Q9CPY7 (peptide sequence: EMLNISGPPLK, peptide start residue: 69)” as the target, how does the log2 fold change read?
Answer: -0.278

Question: “UniProt Q9CR00 (peptide sequence: RKEEIEAEIK, peptide start residue: 29)” was tested. Which log2 fold change did it give?
Answer: 0.131

Question: With “UniProt Q9CPU0 (peptide sequence: GFGHIGIAVPDVYSACK, peptide start residue: 124)” as the target, how does the log2 fold change read?
Answer: 0.134

Question: For “UniProt Q9CQ45 (peptide sequence: MSLDPADLTHDTTGLTAK, peptide start residue: 102)”, which log2 fold change is on record?
Answer: -0.223

Question: How did the log2 fold change turn out when “UniProt Q9CQZ7 (peptide sequence: SADEPMTTFYK, peptide start residue: 86)” was run?
Answer: 0.393

Question: How did the log2 fold change turn out when “UniProt Q9CQR4 (peptide sequence: VLEKVTLVSAAPEK, peptide start residue: 24)” was run?
Answer: -0.363

Question: “UniProt Q9CQ40 (peptide sequence: IKGYFDEQLK, peptide start residue: 149)” was tested. Which log2 fold change did it give?
Answer: 0.367

Question: With “UniProt Q9CPX6 (peptide sequence: AYLPTDKQFLVTK, peptide start residue: 65)” as the target, how does the log2 fold change read?
Answer: -0.441

Question: “UniProt Q99M04 (peptide sequence: VEEYVTPEKFK, peptide start residue: 318)” was tested. Which log2 fold change did it give?
Answer: 0.569

Question: For “UniProt Q9CQ36 (peptide sequence: DAYCCAQQGK, peptide start residue: 82)”, which log2 fold change is on record?
Answer: 0.0891

Question: For “UniProt Q99LY9 (peptide sequence: EWIECAHGIGGTR, peptide start residue: 39)”, which log2 fold change is on record?
Answer: -0.567

Question: Which log2 fold change does the source give for “UniProt Q9CQW3 (peptide sequence: TDGCQHFCHPGQSSYMCSCAK, peptide start residue: 134)” here?
Answer: 0.185

Question: With “UniProt Q99NH2 (peptide sequence: SLPRDPSSWSNQFQR, peptide start residue: 201)” as the target, how does the log2 fold change read?
Answer: -0.468

Question: How did the log2 fold change turn out when “UniProt Q9CR02 (peptide sequence: LQWFHSHLDMK, peptide start residue: 55)” was run?
Answer: -0.165

Question: For “UniProt Q99LU0 (peptide sequence: VQTAVTMGK, peptide start residue: 79)”, which log2 fold change is on record?
Answer: 0.056

Question: Which log2 fold change does the source give for “UniProt Q99LW6 (peptide sequence: KPRPVSQLVAQQVTQQFVPPTQSK, peptide start residue: 52)” here?
Answer: -0.281

Question: “UniProt Q99MR6 (peptide sequence: MLDAAVIK, peptide start residue: 249)” was tested. Which log2 fold change did it give?
Answer: -0.52

Question: How did the log2 fold change turn out when “UniProt Q9CPW2 (peptide sequence: DVVNVVFVDR, peptide start residue: 57)” was run?
Answer: 0.17

Question: For “UniProt Q9CR08 (peptide sequence: DHDVQELGSQR, peptide start residue: 16)”, which log2 fold change is on record?
Answer: 0.296

Question: “UniProt Q99M15 (peptide sequence: DIQYFVNQR, peptide start residue: 264)” was tested. Which log2 fold change did it give?
Answer: 0.315

Question: “UniProt Q9CQZ1 (peptide sequence: FQIMSDQIIGR, peptide start residue: 27)” was tested. Which log2 fold change did it give?
Answer: 0.0333

Question: For “UniProt Q99LJ8 (peptide sequence: HPHGGPGPGPGPAATHPR, peptide start residue: 71)”, which log2 fold change is on record?
Answer: 0.121

Question: “UniProt Q99PM9 (peptide sequence: QASESSSRPH, peptide start residue: 252)” was tested. Which log2 fold change did it give?
Answer: -0.483

Question: With “UniProt Q99PE8 (peptide sequence: TTLLDAISGR, peptide start residue: 94)” as the target, how does the log2 fold change read?
Answer: -0.193

Question: “UniProt Q9CQ06 (peptide sequence: ATSSPFYR, peptide start residue: 13)” was tested. Which log2 fold change did it give?
Answer: 0.31

Question: How did the log2 fold change turn out when “UniProt Q9CQZ6 (peptide sequence: IEGTPLETVQKK, peptide start residue: 30)” was run?
Answer: 0.0777
